Assay results taken from article doi:10.1101/2020.02.21.958371.
Protein sequences can lack the tags named with them. For part of these data: The exact form of at least one protein or probe is not confirmed. For part of these data: A weaker result is weaker than the reference pair of the same experiment. For part of these data: At least one verdict rests on a figure or table, not on a statement of the authors.

How the values were obtained:
[1] = biological target: T1, RMB1 MBD (EMSA) (Arabidopsis thaliana) (UniProt F4I209); test: EMSA; conditions: residues 1-81
T1 sequence (looked up): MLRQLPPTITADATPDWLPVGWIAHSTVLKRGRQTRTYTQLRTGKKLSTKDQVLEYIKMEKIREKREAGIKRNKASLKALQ

[2] = biological target: T2, RMB1 MBD (Arabidopsis thaliana) (UniProt F4I209); test: MST; conditions: residues 1-81
T2 sequence (looked up): T1 sequence (looked up)

[3] = biological target: T1, RMB1 MBD (EMSA) (Arabidopsis thaliana); test: competition with a labelled probe; conditions: unlabeled competitor versus methylated probe; residues 1-81

“TCCGTAAAACTTTTCCCGCCAACCAAACGAACTTTCGCCCTAC (double strand) [MEMS mCG]”: binds ([1]; 5mC at forward 17, reverse strand line not in material).
“TTTGGTACGGACTTTTAGTTACAAGAGAGCATTTAAACAAAAATGACCGGTAGATGGAA (double strand) [AT5G39160 mCHH]”: binds ([1]; 5mC at forward 12, 22, 30, 38, reverse unmethylated).
“TCCGTAAAACTTTTCCCGCCAACCAAACGAACTTTCGCCCTAC (double strand) [MEMS mCHG]”: binds ([1]; 5mC at forward 16, reverse unmethylated).
“TCCGTAAAACTTTTCCCGCCAACCAAACGAACTTTCGCCCTAC (double strand) [MEMS mCHH]”: binds ([1]; 5mC at forward 19 and reverse 40).
“TTTGGTACGGACTTTTAGTTACAAGAGAGCATTTAAACAAAAATGACCGGTAGATGGAA (double strand) [AT5G39160 Um]” was tested, and the Kd [2] was over 5.27 µM and the binding result [3] was “binds more weakly”.
